# Data: patent US9493537B2 (STC.UNM, priority 2009, dated 2016)
# Experiment: general procedure: Fmoc solid-phase peptide synthesis; Sieber amide resin; PyBOP/DIEA (cyclisation)
# Settings: whole synthesis, scale of the general procedure 70 umol resin, side-chain lactam ring, sequence written open
substance,measurement,setting,value
DOTA-Nle-CycMSHhex,isolated yield,overall,30%
same,final purity (method not given),,greater than 95%
